Results from the supplement of paper PMC10849652.
The list shows a part of the results.

Amino acid sequences for entries named in this document (tags omitted). A change or cut given only in a name is not applied to a line headed by its entry.
UniProt Q8NBF6: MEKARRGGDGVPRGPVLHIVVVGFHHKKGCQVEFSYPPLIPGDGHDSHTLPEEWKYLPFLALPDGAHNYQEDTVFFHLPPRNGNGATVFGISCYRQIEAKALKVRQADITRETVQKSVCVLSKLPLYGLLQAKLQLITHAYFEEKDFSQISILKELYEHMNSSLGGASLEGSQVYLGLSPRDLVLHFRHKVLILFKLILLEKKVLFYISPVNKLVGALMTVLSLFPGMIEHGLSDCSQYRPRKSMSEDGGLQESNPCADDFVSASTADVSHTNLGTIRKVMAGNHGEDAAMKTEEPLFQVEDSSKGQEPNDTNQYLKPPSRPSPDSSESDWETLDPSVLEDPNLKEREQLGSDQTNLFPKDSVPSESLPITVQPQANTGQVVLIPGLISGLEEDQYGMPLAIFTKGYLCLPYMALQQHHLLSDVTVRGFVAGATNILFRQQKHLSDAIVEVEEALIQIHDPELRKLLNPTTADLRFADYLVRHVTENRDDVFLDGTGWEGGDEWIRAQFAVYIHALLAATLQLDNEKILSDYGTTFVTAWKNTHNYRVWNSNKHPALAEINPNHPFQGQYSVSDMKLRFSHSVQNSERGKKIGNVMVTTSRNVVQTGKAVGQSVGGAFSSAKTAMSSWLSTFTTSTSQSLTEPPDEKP
UniProt P56385: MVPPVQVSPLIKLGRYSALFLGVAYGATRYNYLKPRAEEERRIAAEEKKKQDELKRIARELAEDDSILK
UniProt P56378: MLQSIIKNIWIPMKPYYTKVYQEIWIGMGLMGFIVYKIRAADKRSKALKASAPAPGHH
UniProt P18859: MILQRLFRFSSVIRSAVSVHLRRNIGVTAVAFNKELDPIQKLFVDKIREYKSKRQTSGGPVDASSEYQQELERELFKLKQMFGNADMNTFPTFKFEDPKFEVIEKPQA
UniProt Q9HD20: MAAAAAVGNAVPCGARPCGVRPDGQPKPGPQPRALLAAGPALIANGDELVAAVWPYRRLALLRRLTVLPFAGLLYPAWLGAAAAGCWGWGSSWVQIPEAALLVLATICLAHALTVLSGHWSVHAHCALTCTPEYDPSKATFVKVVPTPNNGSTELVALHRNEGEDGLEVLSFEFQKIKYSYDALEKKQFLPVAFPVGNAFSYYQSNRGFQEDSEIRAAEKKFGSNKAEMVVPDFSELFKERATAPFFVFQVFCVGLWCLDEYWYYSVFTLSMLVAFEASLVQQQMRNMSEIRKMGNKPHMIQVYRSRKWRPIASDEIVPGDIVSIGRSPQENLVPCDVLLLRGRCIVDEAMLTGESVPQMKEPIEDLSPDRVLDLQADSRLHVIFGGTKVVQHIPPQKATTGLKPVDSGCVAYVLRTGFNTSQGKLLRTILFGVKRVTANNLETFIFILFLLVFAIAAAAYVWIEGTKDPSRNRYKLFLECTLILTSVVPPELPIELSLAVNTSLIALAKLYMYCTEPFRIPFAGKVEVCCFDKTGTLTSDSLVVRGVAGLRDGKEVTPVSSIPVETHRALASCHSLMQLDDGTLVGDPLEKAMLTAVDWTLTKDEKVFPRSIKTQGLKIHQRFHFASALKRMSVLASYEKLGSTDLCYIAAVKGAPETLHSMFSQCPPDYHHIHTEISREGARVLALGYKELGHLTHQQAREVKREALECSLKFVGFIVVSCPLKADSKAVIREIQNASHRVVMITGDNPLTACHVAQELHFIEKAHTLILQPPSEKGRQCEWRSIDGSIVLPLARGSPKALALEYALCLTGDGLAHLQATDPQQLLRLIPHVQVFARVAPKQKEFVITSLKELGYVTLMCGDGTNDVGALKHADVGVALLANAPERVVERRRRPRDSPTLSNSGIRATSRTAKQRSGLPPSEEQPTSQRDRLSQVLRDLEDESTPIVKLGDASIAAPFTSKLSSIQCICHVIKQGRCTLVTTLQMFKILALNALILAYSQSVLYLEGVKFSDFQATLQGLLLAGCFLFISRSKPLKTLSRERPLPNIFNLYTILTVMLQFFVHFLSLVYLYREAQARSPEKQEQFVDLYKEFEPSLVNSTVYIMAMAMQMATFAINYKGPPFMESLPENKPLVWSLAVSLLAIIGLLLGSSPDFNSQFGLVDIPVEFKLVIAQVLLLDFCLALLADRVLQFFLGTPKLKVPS
UniProt Q9BYG0: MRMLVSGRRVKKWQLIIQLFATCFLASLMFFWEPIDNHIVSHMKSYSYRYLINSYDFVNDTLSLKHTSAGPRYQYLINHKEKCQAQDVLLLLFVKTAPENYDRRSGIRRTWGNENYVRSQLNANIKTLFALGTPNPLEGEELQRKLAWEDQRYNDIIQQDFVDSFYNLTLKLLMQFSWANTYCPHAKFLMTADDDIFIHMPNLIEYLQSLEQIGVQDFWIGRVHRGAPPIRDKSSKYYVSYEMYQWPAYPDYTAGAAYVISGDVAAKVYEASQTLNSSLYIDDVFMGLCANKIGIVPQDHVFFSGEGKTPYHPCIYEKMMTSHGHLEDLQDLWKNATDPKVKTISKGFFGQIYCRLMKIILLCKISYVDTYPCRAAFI
UniProt O75882: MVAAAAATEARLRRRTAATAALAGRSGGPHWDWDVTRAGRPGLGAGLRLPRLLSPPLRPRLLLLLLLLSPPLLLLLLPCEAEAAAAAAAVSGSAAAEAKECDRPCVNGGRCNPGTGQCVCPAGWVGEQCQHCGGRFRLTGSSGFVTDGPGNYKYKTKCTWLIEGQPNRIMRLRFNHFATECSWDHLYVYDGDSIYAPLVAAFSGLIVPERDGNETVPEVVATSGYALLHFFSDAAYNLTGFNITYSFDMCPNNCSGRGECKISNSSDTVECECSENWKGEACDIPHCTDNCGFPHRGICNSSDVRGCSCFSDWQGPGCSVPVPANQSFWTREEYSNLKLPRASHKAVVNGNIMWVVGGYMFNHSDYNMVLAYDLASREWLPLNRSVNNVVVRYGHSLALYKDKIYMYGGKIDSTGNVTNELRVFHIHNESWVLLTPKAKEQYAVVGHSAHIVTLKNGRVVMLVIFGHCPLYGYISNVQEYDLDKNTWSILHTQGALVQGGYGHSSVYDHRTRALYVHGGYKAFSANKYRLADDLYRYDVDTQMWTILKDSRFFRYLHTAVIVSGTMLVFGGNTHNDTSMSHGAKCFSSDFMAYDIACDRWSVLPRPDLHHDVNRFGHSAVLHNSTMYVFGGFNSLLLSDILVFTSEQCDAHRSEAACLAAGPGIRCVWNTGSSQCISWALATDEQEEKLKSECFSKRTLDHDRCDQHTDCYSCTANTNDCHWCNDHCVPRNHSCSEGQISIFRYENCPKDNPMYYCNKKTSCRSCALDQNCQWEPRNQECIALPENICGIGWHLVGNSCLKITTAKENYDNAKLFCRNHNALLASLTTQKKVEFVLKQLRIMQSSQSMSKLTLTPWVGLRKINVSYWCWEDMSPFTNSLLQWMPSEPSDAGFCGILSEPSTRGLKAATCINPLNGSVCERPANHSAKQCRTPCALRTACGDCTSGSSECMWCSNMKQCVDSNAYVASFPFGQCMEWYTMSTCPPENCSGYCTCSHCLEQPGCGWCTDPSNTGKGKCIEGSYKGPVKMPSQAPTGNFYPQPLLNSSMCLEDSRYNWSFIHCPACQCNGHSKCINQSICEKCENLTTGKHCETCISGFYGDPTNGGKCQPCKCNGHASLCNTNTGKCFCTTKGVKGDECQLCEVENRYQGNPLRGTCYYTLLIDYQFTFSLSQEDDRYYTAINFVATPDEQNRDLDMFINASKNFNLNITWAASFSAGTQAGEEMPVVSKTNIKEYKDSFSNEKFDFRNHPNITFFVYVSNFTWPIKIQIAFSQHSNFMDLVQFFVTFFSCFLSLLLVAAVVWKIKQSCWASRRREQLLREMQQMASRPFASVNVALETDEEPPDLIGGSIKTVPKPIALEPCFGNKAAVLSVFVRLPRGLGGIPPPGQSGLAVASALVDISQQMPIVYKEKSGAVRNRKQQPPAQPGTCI
UniProt Q00973: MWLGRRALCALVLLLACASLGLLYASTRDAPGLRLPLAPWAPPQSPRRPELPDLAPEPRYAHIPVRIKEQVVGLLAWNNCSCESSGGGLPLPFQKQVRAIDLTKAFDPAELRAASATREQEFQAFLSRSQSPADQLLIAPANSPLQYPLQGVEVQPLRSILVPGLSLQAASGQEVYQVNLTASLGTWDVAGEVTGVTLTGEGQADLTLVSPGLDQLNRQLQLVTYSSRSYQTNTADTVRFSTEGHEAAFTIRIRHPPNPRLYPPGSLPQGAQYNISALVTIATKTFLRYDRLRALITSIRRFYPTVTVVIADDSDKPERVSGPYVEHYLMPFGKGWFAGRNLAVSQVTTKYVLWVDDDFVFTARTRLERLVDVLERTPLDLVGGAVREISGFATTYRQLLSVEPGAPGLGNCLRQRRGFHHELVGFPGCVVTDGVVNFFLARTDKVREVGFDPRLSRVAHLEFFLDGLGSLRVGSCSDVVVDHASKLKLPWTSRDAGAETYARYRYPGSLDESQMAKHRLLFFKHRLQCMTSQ
UniProt Q676U5: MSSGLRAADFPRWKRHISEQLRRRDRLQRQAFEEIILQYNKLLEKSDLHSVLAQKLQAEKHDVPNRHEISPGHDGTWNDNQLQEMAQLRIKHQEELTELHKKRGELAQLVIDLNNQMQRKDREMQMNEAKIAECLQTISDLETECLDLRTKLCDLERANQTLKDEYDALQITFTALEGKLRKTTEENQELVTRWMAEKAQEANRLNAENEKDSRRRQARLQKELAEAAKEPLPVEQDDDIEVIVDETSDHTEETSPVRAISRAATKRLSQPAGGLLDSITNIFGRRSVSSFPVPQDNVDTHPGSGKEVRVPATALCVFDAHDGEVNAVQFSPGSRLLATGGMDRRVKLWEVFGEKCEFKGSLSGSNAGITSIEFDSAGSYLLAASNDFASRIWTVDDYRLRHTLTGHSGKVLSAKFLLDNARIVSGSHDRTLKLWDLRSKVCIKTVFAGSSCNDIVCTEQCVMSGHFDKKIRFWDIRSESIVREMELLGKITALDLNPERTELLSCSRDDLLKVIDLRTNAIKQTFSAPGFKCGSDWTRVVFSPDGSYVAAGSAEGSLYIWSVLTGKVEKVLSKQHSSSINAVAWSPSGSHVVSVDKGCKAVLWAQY
UniProt O14965: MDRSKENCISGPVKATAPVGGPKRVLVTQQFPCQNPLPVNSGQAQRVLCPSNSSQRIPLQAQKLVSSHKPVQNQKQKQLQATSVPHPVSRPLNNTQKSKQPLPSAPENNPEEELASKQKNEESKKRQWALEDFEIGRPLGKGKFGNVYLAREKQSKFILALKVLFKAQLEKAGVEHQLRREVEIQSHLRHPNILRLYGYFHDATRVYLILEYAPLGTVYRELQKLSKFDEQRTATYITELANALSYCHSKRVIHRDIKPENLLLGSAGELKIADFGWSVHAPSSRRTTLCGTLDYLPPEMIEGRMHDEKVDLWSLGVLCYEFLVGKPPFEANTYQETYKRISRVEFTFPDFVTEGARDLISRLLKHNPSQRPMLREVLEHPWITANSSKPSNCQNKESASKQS
UniProt Q8NB49: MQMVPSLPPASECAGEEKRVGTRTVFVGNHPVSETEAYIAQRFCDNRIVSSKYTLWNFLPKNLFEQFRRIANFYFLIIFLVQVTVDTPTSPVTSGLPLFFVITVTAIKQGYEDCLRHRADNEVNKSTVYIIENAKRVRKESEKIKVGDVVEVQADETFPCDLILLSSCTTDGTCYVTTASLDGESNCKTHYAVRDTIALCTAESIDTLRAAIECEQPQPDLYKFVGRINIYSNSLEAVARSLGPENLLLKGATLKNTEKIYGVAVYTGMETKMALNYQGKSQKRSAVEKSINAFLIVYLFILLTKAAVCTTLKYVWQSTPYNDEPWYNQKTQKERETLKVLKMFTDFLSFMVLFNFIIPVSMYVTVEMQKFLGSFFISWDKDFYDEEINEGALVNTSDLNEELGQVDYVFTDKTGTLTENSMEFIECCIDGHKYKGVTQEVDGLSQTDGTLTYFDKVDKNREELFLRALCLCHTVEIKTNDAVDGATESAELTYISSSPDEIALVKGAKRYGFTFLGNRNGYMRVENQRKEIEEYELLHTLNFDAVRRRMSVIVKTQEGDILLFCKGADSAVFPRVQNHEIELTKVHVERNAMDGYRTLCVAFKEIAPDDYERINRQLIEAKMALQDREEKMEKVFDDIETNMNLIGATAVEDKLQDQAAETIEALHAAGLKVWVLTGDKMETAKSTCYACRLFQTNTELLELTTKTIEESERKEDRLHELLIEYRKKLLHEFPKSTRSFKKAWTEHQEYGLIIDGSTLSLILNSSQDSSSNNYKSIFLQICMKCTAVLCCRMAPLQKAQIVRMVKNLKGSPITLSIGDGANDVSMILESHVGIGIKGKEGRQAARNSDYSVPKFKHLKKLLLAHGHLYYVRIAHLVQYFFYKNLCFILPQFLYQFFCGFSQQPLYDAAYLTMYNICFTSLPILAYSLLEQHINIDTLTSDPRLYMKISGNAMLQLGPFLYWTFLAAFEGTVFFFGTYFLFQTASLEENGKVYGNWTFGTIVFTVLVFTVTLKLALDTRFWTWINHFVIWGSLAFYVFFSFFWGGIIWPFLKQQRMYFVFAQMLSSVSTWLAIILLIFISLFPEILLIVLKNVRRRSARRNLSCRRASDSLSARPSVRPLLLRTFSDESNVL

compound: C[C@H](C1=CC=C(C=C1)C(=O)NC2=C3C=CNC3=NC=C2)N; assay: log2 fold change, soluble protein after heating vs DMSO (PISA); higher = thermal stabilisation; K562 lysate, 10 uM; active = over 0.2 and 3.5 SD of the protein, either way, in both replicates (recomputed)
Procedure, shortened: (§1)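 A 30 min treatment with 10 μM compound was applied to crude K562 extract at 1 mg/mL protein in PBS pH 7.4 with 1 mM MgCl2. Heating for 3 min spanned 48°C-58°C, after which aliquots were pooled, adjusted to 0.5% NP-40 at 4°C and spun at 21,000xg for 90 min. TMTpro 16plex LC-MS/MS of the supernatant, with channel sums equalised, gave values recorded as log-two fold change in thermal stability against solvent controls, from duplicates.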

Target | log2 fold change
AVL9 (UniProt Q8NBF6) | inactive: -0.097
ATF7IP2 (UniProt Q5U623) | inactive: 0.05
ATP5ME (UniProt P56385) | inactive: -0.062
ATP11C, A0A067XG54 | inactive: -0.064
ATP5MPL (UniProt P56378) | inactive: 0.075
ATP5PF isoform 2 (UniProt P18859) | active: 0.591
ATM (UniProt Q13315) | inactive: -0.112
ATP13A1 (UniProt Q9HD20) | inactive: 0.047
B3GNT5 (UniProt Q9BYG0) | inactive: -0.066
ATRN (UniProt O75882) | inactive: -0.008
B3GNTL1 (UniProt Q67FW5) | inactive: -0.073
ATP1B1 (UniProt P05026) | inactive: 0.075
B4GALNT1 (UniProt Q00973) | inactive: 0.067
ATXN7L3 isoform 2 (UniProt Q14CW9) | inactive: -0.107
AUH (UniProt Q13825) | inactive: 0.144
ATG16L1 (UniProt Q676U5) | inactive: 0.054
ATE1 isoform 2 (UniProt O95260) | inactive: -0.089
ASXL2 (UniProt Q76L83) | inactive: 0.069
AURKA (UniProt O14965) | inactive: -0.071
ATXN2 (UniProt F8WB05) | inactive: 0.087
ATP6V0A1 (UniProt Q93050) | inactive: -0.077
ATP1A1 (UniProt P05023) | inactive: 0.048
ATP11C (UniProt Q8NB49) | inactive: 0.016
ATP6V0C (UniProt P27449) | inactive: -0.262
ATAD3B (UniProt Q5T9A4) | active: 0.308
ATE1 (UniProt O95260) | inactive: 0.032
ATP6V1A (UniProt P38606) | inactive: -0.003
ATP6AP1 (UniProt Q15904) | inactive: -0.076

compound: C[C@H](Nc1ncnc2nc[nH]c12)c1cc2cccc(Cl)c2c(=O)n1-c1ccccc1 [duvelisib]; assay: as above
Procedure, shortened: as §1

Target | log2 fold change
ATP5F1B (UniProt H0YI37) | inactive: 0.132
AVL9 (UniProt Q8NBF6) | inactive: -0.056
ATP5ME (UniProt P56385) | inactive: 0.002
ATP11C, A0A067XG54 | inactive: -0.106
ATP5MPL (UniProt P56378) | inactive: 0.001
ATP5PF isoform 2 (UniProt P18859) | inactive: -0.021
ATM (UniProt Q13315) | inactive: -0.035
ATP13A1 (UniProt Q9HD20) | inactive: -0.004
B3GNT5 (UniProt Q9BYG0) | inactive: 0.012
ATRN (UniProt O75882) | inactive: 0.013
ATP1B1 (UniProt P05026) | inactive: 0.03
B4GALNT1 (UniProt Q00973) | inactive: -0.054
ATP1B2 (UniProt P14415) | inactive: -0.092
ATXN7L3 isoform 2 (UniProt Q14CW9) | inactive: -0.164
AUH (UniProt Q13825) | inactive: 0.135
ATG16L1 (UniProt Q676U5) | inactive: -0.013
ATE1 isoform 2 (UniProt O95260) | inactive: -0.051
ASXL2 (UniProt Q76L83) | inactive: -0.073
AURKA (UniProt O14965) | inactive: -0.006
ATXN2 (UniProt F8WB05) | inactive: -0.065
ATP6V0A1 (UniProt Q93050) | inactive: -0.109
ATP1A1 (UniProt P05023) | inactive: 0.002
ATP11C (UniProt Q8NB49) | inactive: 0.001
ATP6V0C (UniProt P27449) | inactive: 0.117
ATAD3B (UniProt Q5T9A4) | inactive: 0.007
ATP6V1A (UniProt P38606) | inactive: 0.001
ATP6AP1 (UniProt Q15904) | inactive: 0.044

compound: Cc1cc(Nc2cc(CN3CCOCC3)c3nc(C)c(Cc4ccc(Cl)cc4F)n3n2)n[nH]1 [gandotinib]; assay: as above
Procedure, shortened: as §1

Target | log2 fold change
AVL9 (UniProt Q8NBF6) | inactive: 0.12
ATF7IP2 (UniProt Q5U623) | inactive: 0.027
ATP5ME (UniProt P56385) | inactive: 0.025
ATP11C, A0A067XG54 | inactive: 0.009
ATP5MPL (UniProt P56378) | inactive: -0.062
ATP5PF isoform 2 (UniProt P18859) | inactive: -0.185
ATM (UniProt Q13315) | inactive: 0.014
ATP13A1 (UniProt Q9HD20) | inactive: -0.073
B3GNT5 (UniProt Q9BYG0) | inactive: -0.075
ATRN (UniProt O75882) | inactive: -0.027
B3GNTL1 (UniProt Q67FW5) | inactive: 0.038
ATP1B1 (UniProt P05026) | inactive: 0.088
B4GALNT1 (UniProt Q00973) | inactive: 0.081
ATXN7L3 isoform 2 (UniProt Q14CW9) | inactive: 0.15
AUH (UniProt Q13825) | inactive: -0.117
ATG16L1 (UniProt Q676U5) | inactive: -0.026
ATE1 isoform 2 (UniProt O95260) | inactive: 0.076
ASXL2 (UniProt Q76L83) | inactive: -0.091
AURKA (UniProt O14965) | active: 1
ATXN2 (UniProt F8WB05) | inactive: -0.028
ATP6V0A1 (UniProt Q93050) | inactive: 0.038
ATP1A1 (UniProt P05023) | inactive: -0.008
ATP11C (UniProt Q8NB49) | inactive: 0.009
ATP6V0C (UniProt P27449) | inactive: 0.32
ATAD3B (UniProt Q5T9A4) | inactive: -0.169
ATE1 (UniProt O95260) | inactive: -0.019
ATP6V1A (UniProt P38606) | inactive: 0.007
ATP6AP1 (UniProt Q15904) | inactive: 0.035
